The target of this test is T1, bMERB domain (Rab binding domain) of Mical-1, residues 918-1067 (human) (UniProt Q8TDZ2).
T1 sequence: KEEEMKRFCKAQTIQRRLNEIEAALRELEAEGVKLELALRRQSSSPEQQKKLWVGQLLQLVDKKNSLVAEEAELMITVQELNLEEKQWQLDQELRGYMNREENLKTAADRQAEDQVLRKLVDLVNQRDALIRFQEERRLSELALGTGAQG
The test can be described thus: SEC; analytical size exclusion chromatography of the bMERB domain alone (112.5 µM); apparent size from the retention; both purified. A general note: SEC sorts molecules by how far they enter the pores of the column.

These are yes or no findings as the source states them, for the method shown.

For “bMERB domain (Rab binding domain) of Mical-1, residues 918-1067 (from UniProt Q8TDZ2 918-1067) (domain or fragment)”, the binding entry is “no binding”.

The record behind these values is publication PMC5026484.
